In publication PMC6008489 (Bioorganic & Medicinal Chemistry, 2018):

System: panel of 26 protein kinases
Test: Selectivity score over the 26-kinase panel
Assay type: biochemical, human
Details: for selectivity score S(30%): ratio of the 26 kinases inhibited above 30%; for selectivity score S(50%): ratio of the 26 kinases inhibited above 50%; for selectivity score S(80%): ratio of the 26 kinases inhibited above 80%

Compound	selectivity score S(30%) (compound at 100 µM)	selectivity score S(50%) (compound at 100 µM)	selectivity score S(80%) (compound at 100 µM)	number of members of the 26-kinase panel inhibited >50% (compound at 100 µM)	number of members of the 26-kinase panel inhibited >50% (compound at 30 µM)	selectivity score S(30%) (compound at 30 µM)	selectivity score S(50%) (compound at 30 µM)	selectivity score S(80%) (compound at 30 µM)
Nc1ccc[nH]c1=O [Compound 1, 3-aminopyridin-2-one]	0.31	0.08						
Cn1cc(-c2c[nH]c(=O)c(N)c2)cn1 [Compound 2, 3-Amino-5-(1-methyl-1H-pyrazol-4-yl)pyridin-2(1H)-one]	0.92	0.77	0.46					
COc1ncc(-c2ccncc2)cc1N [Compound 5, 6-Methoxy-3,4′-bipyridin-5-amine]	0.27	0.08						
Nc1cc(-c2ccnc3ccccc23)c[nH]c1=O [Compound 6]	0.42	0.19						
CNc1nccc(-c2c[nH]c(=O)c(N)c2)n1 [Compound 7]	0.96	0.92	0.42					
Nc1cc(-c2ccnc(NC3CC3)n2)c[nH]c1=O [Compound 8]	0.58	0.35	0.19					
Cc1nc(O)c(N)cc1-c1ccncc1 [Compound 15, 3-Amino-6-methyl-5-(pyridin-4-yl)pyridin-2-one]	0.23	0.04		one				
O=C(Nc1cc(-c2ccncc2)c[nH]c1=O)c1ccccc1 [Compound 16, N-(2-Oxo-5-(pyridin-4-yl)-1,2-dihydropyridin-3-yl)benzamide]					eight	0.35	0.31	0.04
CN1CCN(c2ccc(C(=O)Nc3cc(-c4ccncc4)c[nH]c3=O)cc2)CC1 [Compound 22]						0.54	0.38	0.35
O=C(Nc1cc(-c2ccnc(NC3CC3)n2)c[nH]c1=O)c1ccccc1 [Compound 24]						0.88	0.77	0.38
